Reference: paper PMC12170836
These are yes or no findings as the source states them, for the method shown. In cells and extracts the contact can be indirect. Binding can be weak; no strength is given. Where a sequence is shown, tags or fusion partners need not be part of it.

Biological target: T1, ARIH2-FLAG (UniProt Q9Z1K6)
T1 sequence: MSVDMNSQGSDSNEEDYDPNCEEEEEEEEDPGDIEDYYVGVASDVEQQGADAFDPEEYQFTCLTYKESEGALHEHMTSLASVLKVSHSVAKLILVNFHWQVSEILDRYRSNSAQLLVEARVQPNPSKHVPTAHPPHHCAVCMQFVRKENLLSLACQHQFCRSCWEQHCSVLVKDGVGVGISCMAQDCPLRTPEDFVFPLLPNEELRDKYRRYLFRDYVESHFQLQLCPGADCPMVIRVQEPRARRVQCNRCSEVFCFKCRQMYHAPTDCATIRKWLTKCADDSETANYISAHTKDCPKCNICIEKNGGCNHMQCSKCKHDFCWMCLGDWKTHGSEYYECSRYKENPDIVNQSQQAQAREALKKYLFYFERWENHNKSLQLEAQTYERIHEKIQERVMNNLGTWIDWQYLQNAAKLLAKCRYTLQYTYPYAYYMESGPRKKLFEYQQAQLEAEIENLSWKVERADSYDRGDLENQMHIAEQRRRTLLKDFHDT
Test: co-IP; HEK293T cells co-transfected for 30 h; lysates in RIPA buffer; immunoprecipitated with anti-FLAG beads, immunoblotted with anti-HA and anti-FLAG; for the ARIH2-FLAG panels cells were treated with MG132 (20 μM) for 6 h

| binding | Substance |
| --- | --- |
| binds | PPARγ∆AF-HA (from UniProt P37238) |
| binds | PPARγ∆DBD-HA (from UniProt P37238) |
| binds | PPARγ∆LBD-HA (from UniProt P37238) |
